Measured values as given in paper doi:10.1101/2025.10.25.684511.

Chains of the proteins cited; added tags and fusions are not shown.
UniProt Q99LI8: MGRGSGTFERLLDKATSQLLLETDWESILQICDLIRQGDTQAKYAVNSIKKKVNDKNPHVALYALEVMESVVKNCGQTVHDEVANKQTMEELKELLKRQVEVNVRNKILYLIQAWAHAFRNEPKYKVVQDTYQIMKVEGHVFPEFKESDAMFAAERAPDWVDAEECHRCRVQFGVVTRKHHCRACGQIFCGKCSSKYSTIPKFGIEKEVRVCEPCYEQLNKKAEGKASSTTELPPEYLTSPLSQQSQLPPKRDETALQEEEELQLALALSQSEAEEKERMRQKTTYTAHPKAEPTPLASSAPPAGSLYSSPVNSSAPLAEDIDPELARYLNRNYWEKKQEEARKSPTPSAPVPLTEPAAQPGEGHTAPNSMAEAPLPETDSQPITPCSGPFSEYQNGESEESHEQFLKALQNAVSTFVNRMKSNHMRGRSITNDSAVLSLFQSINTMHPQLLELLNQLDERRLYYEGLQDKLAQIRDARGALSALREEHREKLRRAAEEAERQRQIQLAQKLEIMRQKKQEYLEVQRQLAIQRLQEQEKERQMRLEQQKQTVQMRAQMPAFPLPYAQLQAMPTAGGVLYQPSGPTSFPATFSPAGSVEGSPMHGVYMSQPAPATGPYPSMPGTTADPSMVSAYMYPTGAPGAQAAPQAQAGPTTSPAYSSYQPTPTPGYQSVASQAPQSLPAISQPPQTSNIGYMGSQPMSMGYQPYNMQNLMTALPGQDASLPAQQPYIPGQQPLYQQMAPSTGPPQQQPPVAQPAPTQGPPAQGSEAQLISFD
UniProt P70297: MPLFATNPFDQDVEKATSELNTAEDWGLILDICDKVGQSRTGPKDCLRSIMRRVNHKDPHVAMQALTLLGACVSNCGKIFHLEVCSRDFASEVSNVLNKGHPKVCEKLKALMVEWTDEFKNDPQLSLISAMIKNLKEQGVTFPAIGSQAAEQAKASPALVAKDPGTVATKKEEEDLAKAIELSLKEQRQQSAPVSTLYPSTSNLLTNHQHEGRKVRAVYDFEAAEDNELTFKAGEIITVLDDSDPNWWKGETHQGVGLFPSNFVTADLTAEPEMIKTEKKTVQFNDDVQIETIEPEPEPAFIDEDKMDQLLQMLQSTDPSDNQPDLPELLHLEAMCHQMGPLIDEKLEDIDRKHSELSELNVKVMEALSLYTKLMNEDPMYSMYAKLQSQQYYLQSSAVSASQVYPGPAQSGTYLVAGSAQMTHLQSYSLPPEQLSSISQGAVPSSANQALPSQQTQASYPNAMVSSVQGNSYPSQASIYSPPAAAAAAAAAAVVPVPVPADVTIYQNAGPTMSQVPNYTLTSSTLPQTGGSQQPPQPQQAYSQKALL

Target: hepatocyte growth factor-regulated tyrosine kinase substrate (HGS) (mouse (endogenous in 17Cl-1)) (UniProt Q99LI8)
Test: affinity purification with mass spectrometry

In the case of STAM (from UniProt P70297 1-548), the binding is reported as “binds”.

Results are given in words; binding and its absence hold for the method and conditions named. In cells and extracts the contact can be indirect. These calls come from enrichment with a bait or labelling near it, and not all partners need be listed.
